Source: paper PMC5429092
These are yes or no findings as the source states them, for the method shown. Some binding calls cover weakened binding; strength is not graded here.

Chains of the proteins cited; added tags and fusions are not shown. Lines headed by an entry give the natural chain unless they say otherwise; changes in a name come on top. A line that says so, or that is headed by a name, gives the form on record, which may keep a tag or linker. Residues count along the entry.
biotinylated human PPP1R15A^533-624 (AviTag-PPP1R15A 533-624-MBP) (O75807, residues 533-624): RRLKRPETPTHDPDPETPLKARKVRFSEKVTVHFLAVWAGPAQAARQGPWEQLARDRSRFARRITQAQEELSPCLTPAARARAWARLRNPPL
biotinylated human PPP1R15A^(533-624)F592A (O75807, form named): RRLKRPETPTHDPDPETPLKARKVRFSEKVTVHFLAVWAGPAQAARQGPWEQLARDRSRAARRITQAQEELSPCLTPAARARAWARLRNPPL
biotinylated human PPP1R15A^(533-624)R578A (O75807, form named): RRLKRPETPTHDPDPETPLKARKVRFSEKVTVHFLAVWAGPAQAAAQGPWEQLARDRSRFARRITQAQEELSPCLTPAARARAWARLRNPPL
biotinylated human PPP1R15A^(533-624)V556E (O75807, form named): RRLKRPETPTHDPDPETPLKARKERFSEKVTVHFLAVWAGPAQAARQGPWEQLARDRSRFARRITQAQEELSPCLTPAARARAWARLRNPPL
biotinylated human PPP1R15A^(533-624)W582A (O75807, form named): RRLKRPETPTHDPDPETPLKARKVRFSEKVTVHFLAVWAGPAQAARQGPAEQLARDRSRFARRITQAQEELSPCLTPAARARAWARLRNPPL
UniProt P63087: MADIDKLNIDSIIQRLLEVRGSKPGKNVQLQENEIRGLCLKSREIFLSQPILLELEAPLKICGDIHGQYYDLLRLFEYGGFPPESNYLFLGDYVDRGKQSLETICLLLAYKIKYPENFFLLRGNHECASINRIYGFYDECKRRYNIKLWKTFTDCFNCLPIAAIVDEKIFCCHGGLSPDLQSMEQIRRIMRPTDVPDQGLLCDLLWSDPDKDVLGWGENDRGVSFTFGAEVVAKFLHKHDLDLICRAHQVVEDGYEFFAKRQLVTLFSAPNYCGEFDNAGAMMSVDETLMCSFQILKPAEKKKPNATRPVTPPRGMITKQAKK

Legend:
[1] = molecular target: biotinylated human PPP1R15A^533-624 (AviTag-PPP1R15A 533-624-MBP) (human) (UniProt O75807); experiment: BLI; as a1 but with Sephin1 [50 µM] added before exposure to PP1 and present during the binding phase; both purified
[2] = molecular target: biotinylated human PPP1R15A^(533-624)F592A (human) (UniProt O75807); experiment: BLI; biotinylated PPP1R15A^533-624 (wild type or mutant) immobilised on streptavidin sensor; PP1 [40 nM] in solution; HEPES buffer, 25 °C, 600 rpm; fit 'association then dissociation'; both purified
[3] = molecular target: biotinylated human PPP1R15A^(533-624)R578A (human) (UniProt O75807); experiment: as above
[4] = molecular target: biotinylated human PPP1R15A^(533-624)V556E (human) (UniProt O75807); experiment: as above
[5] = molecular target: biotinylated human PPP1R15A^(533-624)W582A (human) (UniProt O75807); experiment: as above

binding [1]: binds | binding [2]: binds | binding [3]: binds | binding [4]: no binding (tested: PP1 [40 nM]) | binding [5]: binds
Substance: PP1 (PP1G 1–323, full-length PP1 phosphatase catalytic subunit) (from UniProt P63087 1-323) (enzyme)
